Measured values taken from article PMC8373263.
Results are given in words; binding and its absence hold for the method and conditions named. Tags and fused reporters may be left off the sequences shown.

The chains behind the UniProt entries cited, without tags or fusion partners.
UniProt P70288: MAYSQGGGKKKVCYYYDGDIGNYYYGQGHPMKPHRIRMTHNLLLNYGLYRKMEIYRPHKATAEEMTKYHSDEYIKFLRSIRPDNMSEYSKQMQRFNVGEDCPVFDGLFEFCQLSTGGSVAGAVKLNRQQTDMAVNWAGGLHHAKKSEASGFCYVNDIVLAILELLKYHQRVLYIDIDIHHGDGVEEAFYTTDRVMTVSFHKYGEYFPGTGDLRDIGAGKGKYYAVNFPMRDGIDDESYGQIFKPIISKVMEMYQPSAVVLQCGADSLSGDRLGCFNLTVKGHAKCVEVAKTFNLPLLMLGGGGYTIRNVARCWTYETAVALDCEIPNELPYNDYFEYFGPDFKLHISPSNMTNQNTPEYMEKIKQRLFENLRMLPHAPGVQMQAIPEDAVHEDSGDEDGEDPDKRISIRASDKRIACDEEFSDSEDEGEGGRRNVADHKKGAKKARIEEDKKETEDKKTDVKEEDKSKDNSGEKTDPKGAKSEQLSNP

Molecular target: T1, GST-APPL1 (full-length APPL1) (mouse) (UniProt Q8K3H0)
T1 sequence: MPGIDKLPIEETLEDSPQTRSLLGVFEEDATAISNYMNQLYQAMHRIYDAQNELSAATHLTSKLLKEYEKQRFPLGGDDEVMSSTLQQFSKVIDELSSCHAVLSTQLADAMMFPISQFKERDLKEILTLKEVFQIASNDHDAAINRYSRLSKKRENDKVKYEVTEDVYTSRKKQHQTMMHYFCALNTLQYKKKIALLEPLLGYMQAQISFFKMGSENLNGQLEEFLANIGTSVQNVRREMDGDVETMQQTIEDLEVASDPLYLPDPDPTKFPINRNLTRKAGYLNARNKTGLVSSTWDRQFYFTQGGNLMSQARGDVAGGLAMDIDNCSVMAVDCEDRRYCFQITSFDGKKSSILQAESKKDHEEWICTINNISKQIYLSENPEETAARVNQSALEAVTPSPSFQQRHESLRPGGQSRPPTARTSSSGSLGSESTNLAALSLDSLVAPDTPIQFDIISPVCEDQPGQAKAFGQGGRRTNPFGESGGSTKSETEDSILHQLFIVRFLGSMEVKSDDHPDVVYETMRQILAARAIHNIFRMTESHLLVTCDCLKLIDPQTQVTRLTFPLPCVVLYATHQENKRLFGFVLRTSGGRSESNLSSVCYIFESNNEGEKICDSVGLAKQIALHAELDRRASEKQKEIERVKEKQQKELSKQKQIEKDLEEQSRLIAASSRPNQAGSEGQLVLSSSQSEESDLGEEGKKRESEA
Experiment: pull-down; GST-APPL1 and HDAC2 (Supplementary Figure S4); by the methods' binding assay: 10 μg purified GST-tagged protein with about the same amount of His-tagged recombinant protein in lysis buffer, GST beads, His antibody; both purified

For “HDAC2 (tested against GST-APPL1, Supplementary Figure S4) (from UniProt P70288 1-488) (enzyme)”, the binding was “no binding”.
